The text below walks through data of patent publication US20090170765A1.

In assay [1] the target is importin β1 (UniProt Q14974). The experiment in a line: co-immunoprecipitation from transfected HeLa cells, GFP antibody, detection with importin β1 antibody.
In assay [2] the target is importin β1 (UniProt Q14974). The experiment in a line: co-immunoprecipitation from transfected HeLa cells.

Results are given in words; binding and its absence hold for the method and conditions named. In cells and extracts the contact can be indirect. Some entries that bind do so weakly or less than the wild type.

Regarding “GFP-NLS fusion protein (GFP fused to the CnAβ 171-190 fragment) (from UniProt P16298 171-190)”, in assay [1], the binding result is given as “binds”.

For the substance “GFP-tagged full length calcineurin Aβ (CnAβ(full), amino acids 1-524) (from UniProt P16298 1-524) (enzyme)”, the binding entry in assay [2] and in assay [1] was “binds” in each case.
